Results: article PMC9780206
Results are given in words; binding and its absence hold for the method and conditions named. Binding calls can cover weak binding; strength is not graded here. Each block holds one molecule with its values, some of them ahead of it.

Legend:
[1] = biological target: mature AtUC5 (amino acids 25–152) (A. thaliana) (UniProt Q9C7T2); test: two-hybrid; pairwise assay (Hybrigenics Services): bait in L40deltaGal4 and prey in YHGX13, mated to diploids; streaks of three independent clones on DO-2 (-Trp -Leu) and DO-3 (-Trp -Leu -His) media
[2] = biological target: mature AtUC5 (amino acids 25–152) (A. thaliana) (UniProt Q9C7T2); test: two-hybrid; library screen (Hybrigenics Services): mature AtUC5 (amino acids 25-152) as bait against a random-primed A. thaliana seedlings cDNA library; colonies selected on medium lacking tryptophan, leucine and histidine with 2 mM 3-aminotriazole

binding [1]: binds
binding [2]: binds
Molecule: late embryogenesis abundant (LEA) protein-like protein (At5g54370), amino acids 195–337 (from UniProt Q9FG54) (domain or fragment)

binding [1]: binds
binding [2]: binds
B1: copper amine oxidase (AtCuAOγ2, At3g43670), amino acids 212–491 (domain or fragment, UniProt Q9M2B9 212-491)
chain: VDMDKLEIIKIVDNGPVPVPKSTGTEYRYGFLNETVYMDRVNPMSMEQPDGPSFQVEDGYLVKWANWKFHIKPDQRAGMIISQATVRDSKTGEARSVMYKGFASELFVPNMDPGEGWYSKAYMDAGEFGLGPSSMPLVPLNDCPRNAYYIDGFFASPEGIPILQPNMICLFERYAGDTSWRHSEILLPGVDIRESRAKVTLVARMACSVGNYDYIFDWEFQMDGVIRVTVAASGMLMVKGTAYENVEDLGEKEDDSGPLISENVIGVVHDHFISFHLDMD
